Data as given in PubChem BioAssay AID1224830 (NIAID, 2016)

Test: 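Regulators of TLR4 signalling towards TNF-alpha in macrophage-like cells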 (primary screen)
System: human THP-1 monocytic leukaemia cells, TNF dual-luciferase reporter clone, PMA-differentiated to macrophage-like cells
Knock-down reagent: siRNA pool against human genes, 50 nM
Timing: LPS for 4 h, given about 3 days after siRNA transfection
Challenge: bacterial LPS (TLR4 ligand), 10 ng/ml
Detection: 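TNF firefly reporter luminescence divided by renilla, normalised to the plate median, then turned into a robust z-score for each replicate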
Direction: TNF reporter robust z-score: higher = stronger TNF reporter response to LPS
Call rule: 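Each well counts as active if its z-score is over 2.8 or under -1.5; controls are left without a call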
This is a random part of about 18,000 deposited reagents. About 2,900 of them (16%) count as active. 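Calls are made per well; low scores hint the gene aids the LPS response, high scores that it dampens it.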 Repeated entries: four replicate wells of each siRNA pool.

The first 5 entries as a preview:
no.	gene symbol	PubChem SID	TNF reporter robust z-score	call
1	SDR39U1	SID315458184	-0.61	inactive
2	SDR39U1	SID315458184	2.4	inactive
3	SDR39U1	SID315458184	-0.58	inactive
4	SDR39U1	SID315458184	0.03	inactive
5	MICALL2	SID315459452	-0.37	inactive

The list itself, from the start:
no.	gene symbol	PubChem SID	TNF reporter robust z-score	call
1	SDR39U1	SID315458184	-0.61	inactive
2	SDR39U1	SID315458184	2.4	inactive
3	SDR39U1	SID315458184	-0.58	inactive
4	SDR39U1	SID315458184	0.03	inactive
5	MICALL2	SID315459452	-0.37	inactive
6	MICALL2	SID315459452	-0.18	inactive
7	MICALL2	SID315459452	-0.89	inactive
8	MICALL2	SID315459452	0.23	inactive
9	TFR2	SID315451843	0.05	inactive
10	TFR2	SID315451843	1.5	inactive
11	TFR2	SID315451843	2.86	active
12	TFR2	SID315451843	1.23	inactive
13	ABCG1	SID315453426	0.14	inactive
14	ABCG1	SID315453426	1.1	inactive
15	ABCG1	SID315453426	0.09	inactive
16	ABCG1	SID315453426	0.7	inactive
17	SNU13	SID315450248	-1.06	inactive
18	SNU13	SID315450248	-0.87	inactive
19	SNU13	SID315450248	-0.56	inactive
20	SNU13	SID315450248	0.28	inactive
21	SYNCRIP	SID315454137	-0.6	inactive
22	SYNCRIP	SID315454137	-1.52	active
23	SYNCRIP	SID315454137	-0.82	inactive
24	SYNCRIP	SID315454137	-0.45	inactive
25	SLC2A11	SID315459131	2.03	inactive
26	SLC2A11	SID315459131	3.36	active
27	SLC2A11	SID315459131	1.17	inactive
28	SLC2A11	SID315459131	1.53	inactive
29	HMOX1	SID315449237	-0.35	inactive
30	HMOX1	SID315449237	0.58	inactive
31	HMOX1	SID315449237	0.03	inactive
32	HMOX1	SID315449237	1.69	inactive
33	NR2E1	SID315451901	1.51	inactive
34	NR2E1	SID315451901	0.34	inactive
35	NR2E1	SID315451901	1.22	inactive
36	NR2E1	SID315451901	0.14	inactive
37	B4GALT5	SID315453207	-0.08	inactive
38	B4GALT5	SID315453207	-0.35	inactive
39	B4GALT5	SID315453207	-0.74	inactive
40	B4GALT5	SID315453207	0.2	inactive
41	C1orf220	SID315464757	2.02	inactive
42	C1orf220	SID315464757	1.3	inactive
43	C1orf220	SID315464757	1.81	inactive
44	C1orf220	SID315464757	0.62	inactive
45	SSB	SID315451646	0.98	inactive
46	SSB	SID315451646	-1	inactive
47	SSB	SID315451646	-0.03	inactive
48	SSB	SID315451646	0.24	inactive
49	AARS2	SID315458423	-0.13	inactive
50	AARS2	SID315458423	-0.37	inactive
51	AARS2	SID315458423	0.5	inactive
52	AARS2	SID315458423	0.09	inactive
53	TIMCC	SID315460564	0.11	inactive
54	TIMCC	SID315460564	-0.79	inactive
55	TIMCC	SID315460564	-0.96	inactive
56	TIMCC	SID315460564	-0.78	inactive
57	SH3RF3	SID315464172	-0.2	inactive
58	SH3RF3	SID315464172	-0.13	inactive
59	SH3RF3	SID315464172	-0.82	inactive
60	SH3RF3	SID315464172	0.1	inactive
61	PLEKHA8P1	SID315456427	-1.02	inactive
62	PLEKHA8P1	SID315456427	-0.28	inactive
63	PLEKHA8P1	SID315456427	-0.96	inactive
64	PLEKHA8P1	SID315456427	-0.95	inactive
65	CEPT1	SID315454049	-1.5	inactive
66	CEPT1	SID315454049	-1.52	active
67	CEPT1	SID315454049	-1.24	inactive
68	CEPT1	SID315454049	-1.2	inactive
69	KRTAP19-6	SID315463966	-0.48	inactive
70	KRTAP19-6	SID315463966	-0.23	inactive
71	KRTAP19-6	SID315463966	-0.5	inactive
72	KRTAP19-6	SID315463966	-0.37	inactive
73	ASPH	SID315447434	-0.33	inactive
74	ASPH	SID315447434	0.13	inactive
75	ASPH	SID315447434	0.24	inactive
76	ASPH	SID315447434	0.32	inactive
